Laboratory results: PubChem BioAssay AID1259425 (University of Nebraska Medical Center, 2018)
Shown is one part, drawn at random, of about 14,000 reagents tested. Further read-outs or replicates are left out here. Not given: the time to read-out.

Purpose: 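Find knockdowns that reproduce the gene expression pattern seen when KSR1 is lost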 (primary screen)
Cell system: HCT116 human colon cancer cells
Knock-down reagent: siRNA pool against human genes, 50 nM siRNA
Measurement: 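After 50 nM siRNA pool, branched-DNA assay measures six marker transcripts per well, minus blank, normalised to the geometric mean of two housekeeping transcripts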
Scale: BNIP3L mRNA: higher = more BNIP3L transcript after knockdown; NDRG1 mRNA: higher = more NDRG1 transcript after knockdown

{"gene symbol": "CELA2B", "BNIP3L mRNA, set 1": 0.108, "NDRG1 mRNA, set 1": 0.317}
{"gene symbol": "CRYGS", "BNIP3L mRNA, set 1": 0.129, "NDRG1 mRNA, set 1": 0.136}
{"gene symbol": "YIF1A", "BNIP3L mRNA, set 1": 0.156, "NDRG1 mRNA, set 1": 0.0911}
{"gene symbol": "N4BP2", "BNIP3L mRNA, set 1": 0.0804, "NDRG1 mRNA, set 1": 0.0813}
{"gene symbol": "AVL9", "BNIP3L mRNA, set 1": 0.0891, "NDRG1 mRNA, set 1": 0.188}
{"gene symbol": "PGD", "BNIP3L mRNA, set 1": 0.129, "NDRG1 mRNA, set 1": 0.511}
{"gene symbol": "DOHH", "BNIP3L mRNA, set 1": 0.255, "NDRG1 mRNA, set 1": 0.508}
{"gene symbol": "JPH2", "BNIP3L mRNA, set 1": 0.156, "NDRG1 mRNA, set 1": 0.189}
{"gene symbol": "DHFR", "BNIP3L mRNA, set 1": 0.182, "NDRG1 mRNA, set 1": 0.162}
{"gene symbol": "KLF2", "BNIP3L mRNA, set 1": 0.0834, "NDRG1 mRNA, set 1": 0.332}
{"gene symbol": "GMCL1", "BNIP3L mRNA, set 1": 0.179, "NDRG1 mRNA, set 1": 0.439}
{"gene symbol": "PGK1", "BNIP3L mRNA, set 1": 0.153, "NDRG1 mRNA, set 1": 0.0756}
{"gene symbol": "MFNG", "BNIP3L mRNA, set 1": 0.085, "NDRG1 mRNA, set 1": 0.144}
{"gene symbol": "E2F1", "BNIP3L mRNA, set 1": 0.168, "NDRG1 mRNA, set 1": 0.293}
{"gene symbol": "SNX17", "BNIP3L mRNA, set 1": 0.133, "NDRG1 mRNA, set 1": 0.0944}
{"gene symbol": "LIMK2", "BNIP3L mRNA, set 1": 0.0427, "NDRG1 mRNA, set 1": 0.179}
{"gene symbol": "NPBWR2", "BNIP3L mRNA, set 1": 0.178, "NDRG1 mRNA, set 1": 0.2}
{"gene symbol": "GAST", "BNIP3L mRNA, set 1": 0.0744, "NDRG1 mRNA, set 1": 0.123}
{"gene symbol": "UXS1", "BNIP3L mRNA, set 1": 0.0673, "NDRG1 mRNA, set 1": 0.327}
{"gene symbol": "TG", "BNIP3L mRNA, set 1": 0.149, "NDRG1 mRNA, set 1": 0.0892}
{"gene symbol": "FBN2", "BNIP3L mRNA, set 1": 0.109, "NDRG1 mRNA, set 1": 0.353}
{"gene symbol": "NPM1", "BNIP3L mRNA, set 1": 0.185, "NDRG1 mRNA, set 1": 0.167}
{"gene symbol": "HIF3A", "BNIP3L mRNA, set 1": 0.0654, "NDRG1 mRNA, set 1": 0.349}
{"gene symbol": "DMRT1", "BNIP3L mRNA, set 1": 0.0525, "NDRG1 mRNA, set 1": 0.13}
{"gene symbol": "ARHGEF3", "BNIP3L mRNA, set 1": 0.122, "NDRG1 mRNA, set 1": 0.223}
{"gene symbol": "CXXC5", "BNIP3L mRNA, set 1": 0.103, "NDRG1 mRNA, set 1": 0.317}
{"gene symbol": "C2orf42", "BNIP3L mRNA, set 1": 0.136, "NDRG1 mRNA, set 1": 0.149}
{"gene symbol": "IL3RA", "BNIP3L mRNA, set 1": 0.0965, "NDRG1 mRNA, set 1": 0.163}

4 entries already listed, arranged by “BNIP3L mRNA, set 1”, high to low.
{"gene symbol": "DHFR", "BNIP3L mRNA, set 1": 0.182, "NDRG1 mRNA, set 1": 0.162}
{"gene symbol": "GMCL1", "BNIP3L mRNA, set 1": 0.179, "NDRG1 mRNA, set 1": 0.439}
{"gene symbol": "PGK1", "BNIP3L mRNA, set 1": 0.153, "NDRG1 mRNA, set 1": 0.0756}
{"gene symbol": "KLF2", "BNIP3L mRNA, set 1": 0.0834, "NDRG1 mRNA, set 1": 0.332}
